# In patent publication US20230002496A1 (STAIDSON BEIJING BIOPHARMACEUTICALS, published 2023):
# Sequences of proteins named here, by UniProt entry; tags and fusion partners are left off. A change or cut given only in a name is not applied to a line headed by its entry.
# UniProt P15509: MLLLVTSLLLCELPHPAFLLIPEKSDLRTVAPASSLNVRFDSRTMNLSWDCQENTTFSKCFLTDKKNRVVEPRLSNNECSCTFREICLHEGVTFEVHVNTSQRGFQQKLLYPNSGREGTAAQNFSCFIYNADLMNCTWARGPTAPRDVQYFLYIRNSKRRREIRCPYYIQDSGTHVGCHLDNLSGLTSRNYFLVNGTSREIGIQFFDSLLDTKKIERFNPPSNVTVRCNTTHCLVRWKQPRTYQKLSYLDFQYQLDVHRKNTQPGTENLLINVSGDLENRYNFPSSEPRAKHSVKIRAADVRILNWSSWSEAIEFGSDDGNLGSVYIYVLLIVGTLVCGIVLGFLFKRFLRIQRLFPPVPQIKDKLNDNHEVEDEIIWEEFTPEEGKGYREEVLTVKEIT
# No constants are given. Whether binding was seen depends on the method and setting. Some entries that bind do so weakly or less than the wild type. Sequences can lack the tags named with a protein.
# T1: Bavih-GMRa (biotinylated Avi-10His-GMRa(ECD)) (human) (UniProt P15509)
# T1 sequence (chain, biotin on the Avi tag (BirA ligase)): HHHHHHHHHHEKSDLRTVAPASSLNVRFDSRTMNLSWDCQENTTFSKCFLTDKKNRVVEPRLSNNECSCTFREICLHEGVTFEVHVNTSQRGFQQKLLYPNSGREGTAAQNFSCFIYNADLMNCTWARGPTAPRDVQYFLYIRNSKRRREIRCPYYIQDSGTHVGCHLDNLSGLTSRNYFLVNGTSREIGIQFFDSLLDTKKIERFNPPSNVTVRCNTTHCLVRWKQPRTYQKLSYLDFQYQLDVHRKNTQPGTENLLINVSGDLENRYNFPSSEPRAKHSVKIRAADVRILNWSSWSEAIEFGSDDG
# Target: T1, Bavih-GMRa (biotinylated Avi-10His-GMRa(ECD)) (human)
# Assay: competitive ELISA as in Example 1: GM-CSF coated, biotinylated GM-CSFRα in solution, antibody (human IgG4) titrated; blocked ligand GM-CSF; x axis 'Log Ab concentration', no unit
row,binding,Binder
1,binds,"E01-IgG4 (antibody, V domains shown) VH: QMQLVQSGAEVKKPGASVKVSCKVSGHTLTELSIHWVRQAPGKGLEWMGGFDPEDGETNYAQKSQGRVTMTGDTSTDTAYLELSSLRSEDTALYYCATGRYCSTDTCYGFDYWGQGTLVTVSS VL: EIVMTQSPATLSLSPGERATLSCRASQSVSSYLAWYQQKPGQAPRLLIYGASSRATGIPDRFSGSGSGTDFTLTISRLEPEDFAVYYCQQYDNWPPTFGQGTKLEIK"
2,binds,"E34-IgG4 (antibody, V domains shown) VH: QMQLVQSGAEVKKPGASVKVSCKVSGYTLTELSIHWVRQAPGKGLEWMGGFDPEDGETIYAQKFQGRVTMTGDTSTDTAYLELSSLRSEDTALYYCATGRYSFTDLAYGFDYWGQGTLVTVSS VL: EIVMTQSPATLSLSPGERATLSCRASQSVSSYLAWYQQKPGQAPRLLIYGASSRATGIPDRFSGSGSGTDFTLTISRLEPEDFAVYYCQQYDSSPPTFGQGTKLEIK"
3,binds,"E194-IgG4 (antibody, V domains shown) VH: QMQLVQSGAEVKKPGASVKVSCKVSGYTLTELSIHWVRQAPGKGLEWMGGFDPEDGETIYAQKSQGRVTMTGDTSTDTAYLELSSLRSEDTALYYCATGRYTGLMNSYGFDYWGQGTLVTVSS VL: EIVMTQSPATLSLSPGERATLSCRASQSVSSYLAWYQQKPGQAPRLLIYGASSRATGIPDRFSGSGSGTDFTLTISRLEPEDFAVYYCQQYDNWPYTFGQGTKLEIK"
4,binds,"E09-IgG4 (antibody, V domains shown) VH: QMQLVQSGAEVKKPGASVKVSCKVSGHTLTELSMHWVRQAPGKGLEWMGGFDPEDGETIYAQKFQGRVTMTGDTSTDTAYLELSSLRSEDTALYYCATGRYCGHASCYGFDYWGQGTLVTVSS VL: EIVMTQSPATLSLSPGERATLSCRASQSVSSYLAWYQQKPGQAPRLLIYGASSRATGIPDRFSGSGSGTDFTLTISRLEPEDFAVYYCQQYNNWPPTFGQGTKLEIK"
5,binds,"E27-IgG4 (antibody, V domains shown) VH: QMQLVQSGAEVKKPGASVKVSCKVSGYTLTELSIHWVRQAPGKGLEWMGGFDPEDGETIYAQKFQGRVTMTGDTSTDTAYLELSSLRSEDTALYYCATGRYISFMFTYGFDYWGQGTLVTVSS VL: EIVMTQSPATLSLSPGERATLSCRASQSVSSYLAWYQQKPGQAPRLLIYGASSRATGIPDRFSGSGSGTDFTLTISRLEPEDFAVYYCQQYNNWPPTFGQGTKLEIK"
6,binds,"E85-IgG4 (antibody, V domains shown) VH: QMQLVQSGAEVKKPGASVKVSCKVSGYTLTELSIHWVRQAPGKGLEWMGGFDPEDGETIYAQKSQGRVTMTGDTSTDTAYLELSSLRSEDTALYYCATGRYSSYFTNYGFDYWGQGTLVTVSS VL: EIVMTQSPATLSLSPGERATLSCRASQSVSSYLAWYQQKPGQAPRLLIYGASSRATGIPDRFSGSGSGTDFTLTISRLEPEDFAVYYCQQYNNWPYTFGQGTKLEIK"
7,binds,"E54-IgG4 (antibody, V domains shown) VH: QMQLVQSGAEVKKPGASVKVSCKVSGYTLTELSMHWVRQAPGKGLEWMGGFDPEDGETIYAQKFQGRVTMTGDTSTDTAYLELSSLRSEDTALYYCATGRYSSYDIAYGFDYWGQGTLVTVSS VL: EIVMTQSPATLSLSPGERATLSCRASQSVSSYLAWYQQKPGQAPRLLIYGASSRATGIPDRFSGSGSGTDFTLTISRLEPEDFAVYYCQQYNSSPPTFGQGTKLEIK"
8,binds,"EII55-IgG4 (antibody, V domains shown) VH: QMQLVQSGAEVKKPGASVKVSCKVSGYTLTELSIHWVRQAPGKGLEWMGGFDGDWHETIYAQKFQGRVTMTGDTSTDTAYLELSSLRSEDTALYYCATGRYTSLDATYGFDYWGQGTLVTVSS VL: EIVMTQSPATLSLSPGERATLSCRASQSVSSYLAWYQQKPGQAPRLLIYGASSRATGIPDRFSGSGSGTDFTLTISRLEPEDFAVYYCQQYGNRPDTFGQGTKLEIK"
9,binds,"E40-IgG4 (antibody, V domains shown) VH: QMQLVQSGAEVKKPGASVKVSCKVSGHTLTELSIHWVRQAPGKGLEWMGGFDPEDGETIYAQKFQGRVTMTGDTSTDTAYLELSSLRSEDTALYYCATGRYTSLDESYGFDYWGQGTLVTVSS VL: EIVMTQSPATLSLSPGERATLSCRASQSVSSYLAWYQQKPGQAPRLLIYGASSRATGIPDRFSGSGSGTDFTLTISRLEPEDFAVYYCQQYDNSPYTFGQGTKLEIK"
10,binds,"EII81-IgG4 (antibody, V domains shown) VH: QMQLVQSGAEVKKPGASVKVSCKVSGYTLTELSIHWVRQAPGKGLEWMGGFDPEDGETIYAQKFQGRVTMTGDTSTDTAYLELSSLRSEDTALYYCATGRYTSLAATYGFDYWGQGTLVTVSS VL: EIVMTQSPATLSLSPGERATLSCRASQSVSSYLAWYQQKPGQAPRLLIYGASSRATGIPDRFSGSGSGTDFTLTISRLEPEDFAVYYCQQYTNVPDTFGQGTKLEIK"
11,binds,"E83-IgG4 (antibody, V domains shown) VH: QMQLVQSGAEVKKPGASVKVSCKVSGYTLTELSIHWVRQAPGKGLEWMGGFDPEDGETIYAQKSQGRVTMTGDTSTDTAYLELSSLRSEDTALYYCATGRYCFYDLCYGFDYWGQGTLVTVSS VL: EIVMTQSPATLSLSPGERATLSCRASQSVSSYLAWYQQKPGQAPRLLIYGASSRATGIPDRFSGSGSGTDFTLTISRLEPEDFAVYYCQQYSNSPPTFGQGTKLEIK"
12,binds,"E31-IgG4 (antibody, V domains shown) VH: QMQLVQSGAEVKKPGASVKVSCKVSGYTLTELSIHWVRQAPGKGLEWMGGFDPEDGETIYAQKSQGRVTMTGDTSTDTAYLELSSLRSEDTALYYCATGRYSESFASYGFDYWGQGTLVTVSS VL: EIVMTQSPATLSLSPGERATLSCRASQSVSSYLAWYQQKPGQAPRLLIYGASSRATGIPDRFSGSGSGTDFTLTISRLEPEDFAVYYCQQYDNWPYTFGQGTKLEIK"
13,binds,"E84-IgG4 (antibody, V domains shown) VH: QMQLVQSGAEVKKPGASVKVSCKVSGYTLTELSMHWVRQAPGKGLEWMGGFDPEDGETIYAQKSQGRVTMTGDTSTDTAYLELSSLRSEDTALYYCATGRYTRGWFNYGFDYWGQGTLVTVSS VL: EIVMTQSPATLSLSPGERATLSCRASQSVSSYLAWYQQKPGQAPRLLIYGASSRATGIPDRFSGSGSGTDFTLTISRLEPEDFAVYYCQQYNNWPYTFGQGTKLEIK"
14,binds,"E30-IgG4 (antibody, V domains shown) VH: QMQLVQSGAEVKKPGASVKVSCKVSGHTLTELSIHWVRQAPGKGLEWMGGFDPEDGETIYAQKFQGRVTMTGDTSTDTAYLELSSLRSEDTALYYCATGRYCSTDTCYGFDYWGQGTLVTVSS VL: EIVMTQSPATLSLSPGERATLSCRASQSVSSYLAWYQQKPGQAPRLLIYGASSRATGIPDRFSGSGSGTDFTLTISRLEPEDFAVYYCQQYDNSPHTFGQGTKLEIK"
15,binds,"E105-IgG4 (antibody, V domains shown) VH: QMQLVQSGAEVKKPGASVKVSCKVSGYTLTELSIHWVRQAPGKGLEWMGGFDPEDGETIYAQKFQGRVTMTGDTSTDTAYLELSSLRSEDTALYYCATGRYTSLMFTYGFDYWGQGTLVTVSS VL: EIVMTQSPATLSLSPGERATLSCRASQSVSSYLAWYQQKPGQAPRLLIYGASSRATGIPDRFSGSGSGTDFTLTISRLEPEDFAVYYCQQYNNWPPTFGQGTKLEIK"
16,binds,"E29-IgG4 (antibody, V domains shown) VH: QMQLVQSGAEVKKPGASVKVSCKVSGHTLTELSIHWVRQAPGKGLEWMGGFDPEDGETIYAQKFQGRVTMTGDTSTDTAYLELSSLRSEDTALYYCATGRYCFPDTCYGFDYWGQGTLVTVSS VL: EIVMTQSPATLSLSPGERATLSCRASQSVSSYLAWYQQKPGQAPRLLIYGASSRATGIPDRFSGSGSGTDFTLTISRLEPEDFAVYYCQQYDNSPHTFGQGTKLEIK"

# Target: T1, Bavih-GMRa (biotinylated Avi-10His-GMRa(ECD)) (human)
# Assay: competitive ELISA as in Example 1: GM-CSF coated, biotinylated GM-CSFRα in solution, antibody (human IgG4) titrated; blocked ligand GM-CSF; x axis numbered 0-4 without label or unit
row,binding,Binder
1,binds,"E164-IgG4 (antibody, V domains shown) VH: QMQLVQSGAEVKKPGASVKVSCKVSGHTLTELSMHWVRQAPGKGLEWMGGFDPEDGETIYAQKSQGRVTMTGDTSTDTAYLELSSLRSEDTALYYCATGRYTNDFANYGFDYWGQGTLVTVSS VL: EIVMTQSPATLSLSPGERATLSCRASQSVSSYLAWYQQKPGQAPRLLIYGASSRATGIPDRFSGSGSGTDFTLTISRLEPEDFAVYYCQQYNNWPYTFGQGTKLEIK"
2,binds,"E172-IgG4 (antibody, V domains shown) VH: QMQLVQSGAEVKKPGASVKVSCKVSGYTLTELSMHWVRQAPGKGLEWMGGFDPEDGETIYAQKFQGRVTMTGDTSTDTAYLELSSLRSEDTALYYCATGRYANLYNNYGFDYWGQGTLVTVSS VL: EIVMTQSPATLSLSPGERATLSCRASQSVSSYLAWYQQKPGQAPRLLIYGASSRATGIPDRFSGSGSGTDFTLTISRLEPEDFAVYYCQQYNNWPPTFGQGTKLEIK"
3,binds,"E16-IgG4 (antibody, V domains shown) VH: QMQLVQSGAEVKKPGASVKVSCKVSGYTLTELSIHWVRQAPGKGLEWMGGFDPEDGEAIYAQKSQGRVTMTGDTSTDTAYLELSSLRSEDTALYYCATGRYSEHSTSYGFDYWGQGTLVTVSS VL: EIVMTQSPATLSLSPGERATLSCRASQSVSSYLAWYQQKPGQAPRLLIYGASSRATGIPDRFSGSGSGTDFTLTISRLEPEDFAVYYCQQYDSWPYTFGQGTKLEIK"
4,binds,"E36-IgG4 (antibody, V domains shown) VH: QMQLVQSGAEVKKPGASVKVSCKVSGHTLTELSMHWVRQAPGKGLEWMGGFDPEDGETIYAQKFQGRVTMTGDTSTDTAYLELSSLRSEDTALYYCATGRYAFIDTAYGFDYWGQGTLVTVSS VL: EIVMTQSPATLSLSPGERATLSCRASQSVSSYLAWYQQKPGQAPRLLIYGASSRATGIPDRFSGSGSGTDFTLTISRLEPEDFAVYYCQQYSNSPPTFGQGTKLEIK"
